Here are results for 27 compounds from the supplement of paper PMC12823440, “Inhibitors supercharge kinase turnover through native proteolytic circuits” (Nature, 2025).

Counter-ions that a name gives are not always drawn. The list shows a part of the results. The calls rarely recur for the same compound in another form.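 Kinases, fused to nanoluciferase, were expressed in K562 cells; luminescence was measured every 4 h from 2 to 18 h as percent of control (DMSO = 100%, positive control = 0%). A time point is decreased if signal falls significantly (2 sigma). Hits were called by the authors by a rule that is not shown; the count of time points alone does not decide it.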

For this assay, the target named is EGFR_T790M (UniProt P00533). Nature of the assay: kinase-Nluc reporter destabilization hit call (1 = scored as downregulated) (binary); higher = compound decreases kinase abundance. Conditions: K562; 2-18 h.
`CC1=C[C@]23C(=O)[C@@H](C=C(CO)[C@@H](O)[C@]2(O)[C@H]1O)[C@H]1[C@@H](C[C@H]3C)C1(C)C` [Ingenol] (10 µM): the “kinase-Nluc reporter destabilization hit call” value is inactive: 0.

Take `C=C[C@H]1CN2CC[C@]3(C(=O)Nc4ccccc43)[C@@H]2C[C@@H]1/C(=C\OC)C(=O)OC` [Corynoxeine] (2 µM): the “kinase-Nluc reporter destabilization hit call” value was inactive: 0. Next, `O=C(O)c1sc2cc(Cl)ccc2c1Cl` (10 µM): inactive: 0; `C[C@H]1CC[C@]2(NC1)O[C@H]1C[C@H]3[C@@H]4CC[C@H]5C[C@@H](O)CC[C@]5(C)[C@H]4CC[C@]3(C)[C@H]1[C@@H]2C` [Tomatidine (hydrochloride)] (10 µM): inactive: 0; `O=C1C=CC[C@@H]2[C@H]3CCCN4CCC[C@@H](CN12)[C@@H]34` [Sophocarpine (monohydrate)] (2.5 µM): inactive: 0. As to `Cc1n[nH]cc1-c1cc2nc([C@@H]3CC4CCN3CC4)[nH]c(=O)c2s1` [Simurosertib] (2.5 µM), the “kinase-Nluc reporter destabilization hit call” value was inactive: 0.

Take `O=C(N[C@@H](COc1ccc2[nH]c(=O)[nH]c2c1)c1ccccc1)c1cccn(Cc2ccc(F)c(F)c2)c1=O` (2.5 µM): the “kinase-Nluc reporter destabilization hit call” value was inactive: 0. Turning to `O=C(/C=C/c1ccccc1)OC[C@H]1O[C@@H](O[C@@H]2OC=C[C@H]3[C@H](O)[C@@H]4O[C@]4(CO)[C@@H]23)[C@H](O)[C@@H](O)[C@@H]1O` [Picroside I] (10 µM), the “kinase-Nluc reporter destabilization hit call” value is inactive: 0. Regarding `C[C@@H]1CC[C@H]2[C@@H](C)C(=O)O[C@@H]3O[C@@]4(C)CC[C@@H]1[C@]32OO4` [Artemisinin] (10 µM), the “kinase-Nluc reporter destabilization hit call” value was inactive: 0. Regarding `N#CC(C#N)=Cc1ccc([N+](=O)[O-])c(O)c1` (10 µM), the “kinase-Nluc reporter destabilization hit call” value was inactive: 0. Under `C[C@H](CCC(=O)O)C[C@H](C)C[C@H](C)C(=O)/C=C(\O)[C@H](C)C[C@H](C)C/C=C/[C@@H](C)[C@@H](O)[C@@H](C)[C@@H](O)C[C@@H]1CC[C@@](C)([C@H]2CC[C@@](C)([C@@H](C)O)O2)O1` [Ionomycin (calcium)] (2.5 µM) stands inactive: 0. Regarding `CC1C(=O)OC2C(O)C34C5OC(=O)C3(OC3OC(=O)C(O)C34C(C(C)(C)C)C5O)C12O` (configuration not stated) [Ginkgolide C] (10 µM), the “kinase-Nluc reporter destabilization hit call” value was inactive: 0.

Take `Cn1cc(C2=C(c3cn(C4CCN(Cc5ccccn5)CC4)c4ccccc34)C(=O)NC2=O)c2ccccc21` [Enzastaurin] (10 µM): the “kinase-Nluc reporter destabilization hit call” value was inactive: 0. As for `O=c1[nH]c2ccccc2n1C1CCN(Cc2ccc(-c3[nH]c4cc5ncnc5cc4nc3-c3ccccc3)cc2)CC1` [AKT inhibitor VIII] (2.5 µM), the “kinase-Nluc reporter destabilization hit call” value was inactive: 0. For the compound `CCN1CCN(C(=O)Cc2ccc(Nc3ncc(F)c(Nc4ccc(C(=O)Nc5ccccc5Cl)cc4)n3)cc2)CC1` (2.5 µM), the “kinase-Nluc reporter destabilization hit call” value is inactive: 0. As for `C=CC(=O)N[C@H]1C=C(C)c2c(-c3cnc4ccccc4c3)c3c(N)ncnc3n2C1` (10 µM), the “kinase-Nluc reporter destabilization hit call” value was inactive: 0. With `CC(C)(C)c1cc(C=C(C#N)C#N)cc(Br)c1O` (2.5 µM), the “kinase-Nluc reporter destabilization hit call” value was inactive: 0. On to `CCCCNc1nc(N)c2[nH]c(=O)n(Cc3ccc(C)nc3)c2n1` (10 µM), for which the “kinase-Nluc reporter destabilization hit call” value was inactive: 0. Next, `C=CC(=O)Nc1ccc2[nH]c(=O)n(C3CCN(Cc4ccc(-c5nc6cc[nH]c(=O)c6cc5-c5ccccc5)cc4)CC3)c2c1` [Borussertib] (10 µM): inactive: 0; `COc1ccc(N(C(=O)Oc2c(C)cccc2C)c2ccnc(Nc3ccc(N4CCN(C)CC4)cc3)n2)c(OC)c1` (2.5 µM): inactive: 0; `COc1ccc2c(c1)[nH]c1c(C)nccc12` [Harmine] (10 µM): inactive: 0. Regarding `O=c1cc(O)c2ccccc2o1` [4-Hydroxycoumarin] (10 µM), the “kinase-Nluc reporter destabilization hit call” value is inactive: 0. As to `CC(=O)c1c(O)c(C)c(O)c(Cc2c(O)c3c(c(C(=O)/C=C/c4ccccc4)c2O)OC(C)(C)C=C3)c1O` [Rottlerin] (2 µM), the “kinase-Nluc reporter destabilization hit call” value was inactive: 0.

With `C/C(O)=C(\C#N)C(=O)Nc1cc(Br)ccc1Br` (10 µM), the “kinase-Nluc reporter destabilization hit call” value is inactive: 0. Consider `Cc1ccccc1-n1c(Cn2ncc3c(N)ncnc32)nc2cccc(C)c2c1=O` (10 µM), for which the “kinase-Nluc reporter destabilization hit call” value was inactive: 0. As for `COc1ccc2c(c1)/C(=C/c1cnc[nH]1)C(=O)N2` (2.5 µM), the “kinase-Nluc reporter destabilization hit call” value was inactive: 0. As to `O=[N+]([O-])/C=C/c1ccc2c(c1)OCO2` (2.5 µM), the “kinase-Nluc reporter destabilization hit call” value was inactive: 0.
